For at least one compound, name, drawing or mass did not settle the structure.
What was measured:
[1] = tested on: Streptococcus pyogenes (ATCC 19615); assay: Hp PDI with or without chitosan, plate count survival fraction; type: cell-based; conditions: 0.1 μM Hp, 0.025% (w/v) chitosan, 630±5 nm 25 J/cm^2
[2] = tested on: Staphylococcus aureus (BCRC 10780); assay: Hp mediated photodynamic inactivation (PDI) with chitosan, plate count survival fraction; type: cell-based; conditions: 0.1 μM Hp, 630±5 nm LED 25 J/cm^2
MRSA strain (ATCC 33592) = assay: Hp PDI with chitosan against MRSA, plate count survival fraction; type: cell-based, Methicillin-resistant Staphylococcus aureus; conditions: 0.1 μM Hp, 630±5 nm 25 J/cm^2
MRSA strain (ATCC 49476) = assay: as above; type: cell-based, Methicillin-resistant Staphylococcus aureus; conditions: 0.25 μM Hp, 0.01% (w/v) chitosan, 630±5 nm 25 J/cm^2
Pseudomonas aeruginosa = assay: Hp PDI with or without chitosan, plate count survival fraction; type: cell-based; conditions: 25 μM Hp, 630±5 nm 50 J/cm^2
[3] = tested on: Streptococcus epidermidis (ATCC 12228); assay: as above; type: cell-based; conditions: 0.1 μM Hp, 630±5 nm 25 J/cm^2

With `CC1=C(CCC(=O)O)c2cc3[nH]c(cc4nc(cc5[nH]c(cc1n2)c(C)c5C(C)O)C(C)=C4C(C)O)c(C)c3CCC(=O)O` (stereo not shown) [Hp, hematoporphyrin] the “PDI effect (survival fraction)” value [1] was “significant decrease in bacteria number”, the “killing effect of Hp-PDI (survival fraction)” value ([2]; chitosan 0.005% (w/v)) was “greatly enhanced” and the “killing efficiency of Hp-PDI (survival fraction)” value ([2]; chitosan 0.05% (w/v)) was “increase the killing efficiency”. The “PDI killing (survival fraction)” value (MRSA strain (ATCC 33592); 0.01% (w/v) chitosan) was “complete eradication”, the “susceptibility to Hp-PDI” value (MRSA strain (ATCC 33592)) was “much susceptible” and the “PDI killing (survival fraction)” value (MRSA strain (ATCC 49476)) was “complete eradication”. The “PDI effect (survival fraction)” value (Pseudomonas aeruginosa; 0.25% (w/v) chitosan) was “advantageous effect in increasing the killing”, the “PDI effect (survival fraction)” value (Pseudomonas aeruginosa; without chitosan) was “totally not effective” and the “PDI effect (survival fraction)” value ([3]; 0.025% (w/v) chitosan) was “complete killing”. The “PDI effect (survival fraction)” value ([3]; without chitosan) was “not obvious”.
